The series in a line: Solubility of the drug substance in water. It is filed as physicochemical. An excerpt: Sesame oil was selected as an excipient to solubilize the drug substance.

Consider `C=C(C)[C@@H]1CCC(C)=C[C@H]1c1c(O)cc(CCCCC)cc1O` [CBD, Cannabidiol], for which the solubility in water result was “insoluble in water”.

Source of the values: patent US10583096B2, “Use of cannabinoids in the treatment of epilepsy” (GW Research Limited, priority 2016, dated 2020).
